Earlier results as cited in patent US20080032989A1, “Method of treating inflammatory diseases using tyroskine kinase inhibitors” (priority 2006, published 2008).
At least one compound was matched to its structure with a doubt left.

System: PDGFR
Conditions: Table 6; cited from earlier work

SMILES: Cc1nc(Nc2ncc(C(=O)Nc3c(C)cccc3Cl)s2)cc(N2CCN(CCO)CC2)n1 [Dasatinib]
- PDGFR Inhibitory profile (with IC50s when available): potent
